# This is one part of the list.
# B1: GS13814A-bth-462-26-462 (Bacteroides thetaiotaomicron) (protein)
# chain: DDRDNLMVNDQIGLLHSTYTETEIFRGMDTPYQLFVIKSGKGKQETEVSISVDETVLQSYNTDNGTSIQLLPSDCYTILQPALRLNDSDYRKAFDIKWNADRLSDLLSTGKEYGLPIQMSVVQNFISADDERLKTIIVPTIKEPYLQMDVPGMSPVTDFMPTFGDLNERELFVKIRTNYSNDEDISFQIEVDPQLVIDYNTAHGTAYKMLPESSFTVDNKGVILTGMKETFIKIKYHKKGLIPEEGTYLFGDYVLPLRITSVSKYGISPDAASKLYTVKFQPDPIDKKGWSVIDFNNCCTQDGGWYLNMGWGVESLIDNNPGTQWLCRWDVKEPLPYYFVFDMGKEYTLFRFGFANPVAPAAHVWAGTSKAGYVEASIDNENWVKLKDWTSPKIGEPNVNMDVPATQARYIRFVITDTYPTYDGLRVSLGEVYAWGM
# Legend:
# Test in all cases: glycan array binding signal (z-score within array); higher = stronger binding
# Conditions in all cases: glycan notation: IUPAC condensed, linker removed
# [1] = target: Fuc(a1-2)Gal6S(b1-3)GlcNAc6S
# Outline: (§1)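 The Consortium for Functional Glycomics database supplied 3228 glycan arrays, of which those lacking an available protein sequence were dropped. The binding signal, a within-array Z-score, was averaged across arrays of the same protein sequence and across linkers. Negative scores can be read as non-binding.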
# Fuc(a1-2)Gal6S(b1-4)Glc = target: Fuc(a1-2)Gal6S(b1-4)Glc
# Outline: as §1
# [2] = target: Fuc(a1-2)Gal6S(b1-4)Glc6S
# Outline: as §1
# Fuc(a1-2)[Gal(a1-3)]Gal = target: Fuc(a1-2)[Gal(a1-3)]Gal
# Outline: as §1
# [3] = target: Fuc(a1-2)[Gal(a1-3)]Gal(b1-3)GalNAc
# Outline: as §1
# [4] = target: Fuc(a1-2)[Gal(a1-3)]Gal(b1-3)GalNAc(b1-3)Gal(a1-4)Gal(b1-4)Glc
# Outline: as §1
# [5] = target: Fuc(a1-2)[Gal(a1-3)]Gal(b1-3)GlcNAc
# Outline: as §1
# [6] = target: Fuc(a1-2)[Gal(a1-3)]Gal(b1-3)GlcNAc(b1-2)Man(a1-3)[Fuc(a1-2)[Gal(a1-3)]Gal(b1-3)GlcNAc(b1-2)Man(a1-6)]Man(b1-4)GlcNAc(b1-4)GlcNAc
# Outline: as §1
# [7] = target: Fuc(a1-2)[Gal(a1-3)]Gal(b1-3)GlcNAc(b1-2)Man(a1-3)[Fuc(a1-2)[Gal(a1-3)]Gal(b1-3)GlcNAc(b1-2)Man(a1-6)]Man(b1-4)GlcNAc(b1-4)[Fuc(a1-6)]GlcNAc
# Outline: as §1
# [8] = target: Fuc(a1-2)[Gal(a1-3)]Gal(b1-3)GlcNAc(b1-3)GalNAc
# Outline: as §1
# [9] = target: Fuc(a1-2)[Gal(a1-3)]Gal(b1-3)GlcNAc(b1-6)GalNAc
# Outline: as §1
# [10] = target: Fuc(a1-2)[Gal(a1-3)]Gal(b1-4)Glc
# Outline: as §1
# [11] = target: Fuc(a1-2)[Gal(a1-3)]Gal(b1-4)GlcNAc
# Outline: as §1
# [12] = target: Fuc(a1-2)[Gal(a1-3)]Gal(b1-4)GlcNAc(b1-2)Man
# Outline: as §1
# [13] = target: Fuc(a1-2)[Gal(a1-3)]Gal(b1-4)GlcNAc(b1-2)Man(a1-3)[Fuc(a1-2)[Gal(a1-3)]Gal(b1-4)GlcNAc(b1-2)Man(a1-6)]Man(b1-4)GlcNAc(b1-4)GlcNAc
# Outline: as §1
# [14] = target: Fuc(a1-2)[Gal(a1-3)]Gal(b1-4)GlcNAc(b1-2)Man(a1-3)[Fuc(a1-2)[Gal(a1-3)]Gal(b1-4)GlcNAc(b1-2)Man(a1-6)]Man(b1-4)GlcNAc(b1-4)[Fuc(a1-6)]GlcNAc
# Outline: as §1
# [15] = target: Fuc(a1-2)[Gal(a1-3)]Gal(b1-4)GlcNAc(b1-3)GalNAc
# Outline: as §1
# [16] = target: Fuc(a1-2)[Gal(a1-3)]Gal(b1-4)GlcNAc(b1-3)[Fuc(a1-2)[Gal(a1-3)]Gal(b1-4)GlcNAc(b1-6)]GalNAc
# Outline: as §1
# [17] = target: Fuc(a1-2)[Gal(a1-3)]Gal(b1-4)GlcNAc(b1-6)GalNAc
# Outline: as §1
# [18] = target: Fuc(a1-2)[Gal(a1-3)]Gal(b1-4)[Fuc(a1-3)]Glc
# Outline: as §1
# [19] = target: Fuc(a1-2)[Gal(a1-3)]Gal(b1-4)[Fuc(a1-3)]GlcNAc
# Outline: as §1
# [20] = target: Fuc(a1-2)[Gal(a1-3)]Gal(b1-4)[Fuc(a1-3)]GlcNAc(b1-3)GalNAc
# Outline: as §1
# [21] = target: Fuc(a1-2)[Gal(a1-4)]Gal(b1-4)GlcNAc
# Outline: as §1
# [22] = target: Fuc(a1-2)[GalNAc(a1-3)]Gal
# Outline: as §1
# [23] = target: Fuc(a1-2)[GalNAc(a1-3)]Gal(b1-3)GalNAc(a1-3)[Fuc(a1-2)]Gal(b1-4)GlcNAc
# Outline: as §1
# [24] = target: Fuc(a1-2)[GalNAc(a1-3)]Gal(b1-3)GalNAc(b1-3)Gal(a1-4)Gal(b1-4)Glc
# Outline: as §1
# [25] = target: Fuc(a1-2)[GalNAc(a1-3)]Gal(b1-3)GlcNAc
# Outline: as §1
# [26] = target: Fuc(a1-2)[GalNAc(a1-3)]Gal(b1-3)GlcNAc(b1-2)Man(a1-3)[Fuc(a1-2)[GalNAc(a1-3)]Gal(b1-3)GlcNAc(b1-2)Man(a1-6)]Man(b1-4)GlcNAc(b1-4)GlcNAc
# Outline: as §1
# [27] = target: Fuc(a1-2)[GalNAc(a1-3)]Gal(b1-3)GlcNAc(b1-2)Man(a1-3)[Fuc(a1-2)[GalNAc(a1-3)]Gal(b1-3)GlcNAc(b1-2)Man(a1-6)]Man(b1-4)GlcNAc(b1-4)[Fuc(a1-6)]GlcNAc
# Outline: as §1
# [28] = target: Fuc(a1-2)[GalNAc(a1-3)]Gal(b1-3)GlcNAc(b1-3)GalNAc
# Outline: as §1
# [29] = target: Fuc(a1-2)[GalNAc(a1-3)]Gal(b1-3)GlcNAc(b1-6)GalNAc
# Outline: as §1
# [30] = target: Fuc(a1-2)[GalNAc(a1-3)]Gal(b1-4)Glc
# Outline: as §1
# [31] = target: Fuc(a1-2)[GalNAc(a1-3)]Gal(b1-4)GlcNAc
# Outline: as §1
# [32] = target: Fuc(a1-2)[GalNAc(a1-3)]Gal(b1-4)GlcNAc(b1-2)Man
# Outline: as §1
# [33] = target: Fuc(a1-2)[GalNAc(a1-3)]Gal(b1-4)GlcNAc(b1-2)Man(a1-3)[Fuc(a1-2)[GalNAc(a1-3)]Gal(b1-4)GlcNAc(b1-2)Man(a1-6)]Man(b1-4)GlcNAc(b1-4)GlcNAc
# Outline: as §1
# [34] = target: Fuc(a1-2)[GalNAc(a1-3)]Gal(b1-4)GlcNAc(b1-2)Man(a1-3)[Fuc(a1-2)[GalNAc(a1-3)]Gal(b1-4)GlcNAc(b1-2)Man(a1-6)]Man(b1-4)GlcNAc(b1-4)[Fuc(a1-6)]GlcNAc
# Outline: as §1
# [35] = target: Fuc(a1-2)[GalNAc(a1-3)]Gal(b1-4)GlcNAc(b1-3)Gal(b1-4)GlcNAc
# Outline: as §1
# [36] = target: Fuc(a1-2)[GalNAc(a1-3)]Gal(b1-4)GlcNAc(b1-3)Gal(b1-4)GlcNAc(b1-3)Gal(b1-4)GlcNAc
# Outline: as §1
# [37] = target: Fuc(a1-2)[GalNAc(a1-3)]Gal(b1-4)GlcNAc(b1-3)GalNAc
# Outline: as §1
# [38] = target: Fuc(a1-2)[GalNAc(a1-3)]Gal(b1-4)GlcNAc(b1-3)[Fuc(a1-2)[GalNAc(a1-3)]Gal(b1-4)GlcNAc(b1-6)]GalNAc
# Outline: as §1
# [39] = target: Fuc(a1-2)[GalNAc(a1-3)]Gal(b1-4)GlcNAc(b1-6)GalNAc
# Outline: as §1
# [40] = target: Fuc(a1-2)[GalNAc(a1-3)]Gal(b1-4)[Fuc(a1-3)]GlcNAc
# Outline: as §1
# [41] = target: Fuc(a1-2)[GalNAc(a1-3)]Gal(b1-4)[Fuc(a1-3)]GlcNAc(b1-3)GalNAc
# Outline: as §1
# [42] = target: Fuc(a1-2)[GalNAc(a1-4)]Gal(b1-4)GlcNAc
# Outline: as §1
# [43] = target: Fuc(a1-2)[GalNAc(b1-3)]Gal
# Outline: as §1
binder,measurement,setting,value
B1,glycan array binding signal (z-score),[1],3.15
same,glycan array binding signal (z-score),Fuc(a1-2)Gal6S(b1-4)Glc,0.446
same,glycan array binding signal (z-score),[2],0.375
same,glycan array binding signal (z-score),Fuc(a1-2)[Gal(a1-3)]Gal,0.269
same,glycan array binding signal (z-score),[3],-0.664
same,glycan array binding signal (z-score),[4],-0.882
same,glycan array binding signal (z-score),[5],-0.307
same,glycan array binding signal (z-score),[6],-0.154
same,glycan array binding signal (z-score),[7],-1.04
same,glycan array binding signal (z-score),[8],-0.074
same,glycan array binding signal (z-score),[9],-0.379
same,glycan array binding signal (z-score),[10],-0.178
same,glycan array binding signal (z-score),[11],0.33
same,glycan array binding signal (z-score),[12],-0.054
same,glycan array binding signal (z-score),[13],0.505
same,glycan array binding signal (z-score),[14],-0.69
same,glycan array binding signal (z-score),[15],-0.118
same,glycan array binding signal (z-score),[16],1.55
same,glycan array binding signal (z-score),[17],-1.44
same,glycan array binding signal (z-score),[18],0.027
same,glycan array binding signal (z-score),[19],0.358
same,glycan array binding signal (z-score),[20],-0.497
same,glycan array binding signal (z-score),[21],1.11
same,glycan array binding signal (z-score),[22],0.259
same,glycan array binding signal (z-score),[23],-1.08
same,glycan array binding signal (z-score),[24],1.01
same,glycan array binding signal (z-score),[25],0.611
same,glycan array binding signal (z-score),[26],-0.564
same,glycan array binding signal (z-score),[27],-0.212
same,glycan array binding signal (z-score),[28],0.298
same,glycan array binding signal (z-score),[29],-0.474
same,glycan array binding signal (z-score),[30],0.619
same,glycan array binding signal (z-score),[31],-0.523
same,glycan array binding signal (z-score),[32],-1.02
same,glycan array binding signal (z-score),[33],-0.488
same,glycan array binding signal (z-score),[34],-0.718
same,glycan array binding signal (z-score),[35],0.238
same,glycan array binding signal (z-score),[36],-0.363
same,glycan array binding signal (z-score),[37],-0.276
same,glycan array binding signal (z-score),[38],-0.351
same,glycan array binding signal (z-score),[39],-0.544
same,glycan array binding signal (z-score),[40],1.64
same,glycan array binding signal (z-score),[41],2.42
same,glycan array binding signal (z-score),[42],-0.027
same,glycan array binding signal (z-score),[43],0.724

# Copied from the entries so far for reference:
binder,measurement,setting,value
B1,glycan array binding signal (z-score),[22],0.259
same,glycan array binding signal (z-score),[23],-1.08
